# According to PMC7862700:
# Sequences of proteins named here, by UniProt entry; tags and fusion partners are left off. A change or cut given only in a name is not applied to a line headed by its entry.
# UniProt Q00613: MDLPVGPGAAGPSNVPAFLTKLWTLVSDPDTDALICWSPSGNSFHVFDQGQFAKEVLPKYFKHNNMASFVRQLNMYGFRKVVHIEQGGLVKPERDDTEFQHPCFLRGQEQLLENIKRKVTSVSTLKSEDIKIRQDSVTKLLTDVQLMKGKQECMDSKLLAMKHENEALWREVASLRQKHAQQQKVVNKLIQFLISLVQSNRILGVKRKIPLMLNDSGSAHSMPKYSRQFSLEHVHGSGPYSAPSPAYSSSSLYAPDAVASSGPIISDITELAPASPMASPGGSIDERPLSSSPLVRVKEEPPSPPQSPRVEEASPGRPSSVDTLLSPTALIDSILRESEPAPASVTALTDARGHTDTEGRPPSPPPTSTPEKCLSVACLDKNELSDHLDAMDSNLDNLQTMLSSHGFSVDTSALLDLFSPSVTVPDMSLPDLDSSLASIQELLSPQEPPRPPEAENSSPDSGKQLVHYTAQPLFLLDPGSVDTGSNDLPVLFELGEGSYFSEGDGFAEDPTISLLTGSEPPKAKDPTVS
# The list shows a part of the results, in another mix than the full data. For part of these data: At the low end of the ranking, values are background and their order means little. The list shows a part of the results. For part of these data: The source does not settle which construct or isoform was used.
# Legend:
# HSF1 = HSF1 (UniProt Q00613); test: DAPPL (digital affinity profiling via proximity ligation, sequencing); conditions: 10 mM Tris-HCl pH 7.5, 50 mM NaCl, 1 mM DTT, 4% glycerol, room temperature, 30 min; GST-TFs on glutathione beads, 16-mer random dsDNA library, 0.1% …; high values mean tight binding; double strand, one strand shown; scale: fold enrichment (6-mer frequency, TF over GST control)
# ELF2 = molecular target: T1, ELF2 (UniProt Q15723); test: as above; conditions: 10 mM Tris-HCl pH 7.5, 50 mM NaCl, 1 mM DTT, 4% glycerol, room temperature, 30 min; GST-TFs on glutathione beads, 16-mer random dsDNA library, 0.1% …; high values mean tight binding; double strand, one strand shown; scale: fold enrichment (6-mer frequency, TF over GST control)
# T1 sequence: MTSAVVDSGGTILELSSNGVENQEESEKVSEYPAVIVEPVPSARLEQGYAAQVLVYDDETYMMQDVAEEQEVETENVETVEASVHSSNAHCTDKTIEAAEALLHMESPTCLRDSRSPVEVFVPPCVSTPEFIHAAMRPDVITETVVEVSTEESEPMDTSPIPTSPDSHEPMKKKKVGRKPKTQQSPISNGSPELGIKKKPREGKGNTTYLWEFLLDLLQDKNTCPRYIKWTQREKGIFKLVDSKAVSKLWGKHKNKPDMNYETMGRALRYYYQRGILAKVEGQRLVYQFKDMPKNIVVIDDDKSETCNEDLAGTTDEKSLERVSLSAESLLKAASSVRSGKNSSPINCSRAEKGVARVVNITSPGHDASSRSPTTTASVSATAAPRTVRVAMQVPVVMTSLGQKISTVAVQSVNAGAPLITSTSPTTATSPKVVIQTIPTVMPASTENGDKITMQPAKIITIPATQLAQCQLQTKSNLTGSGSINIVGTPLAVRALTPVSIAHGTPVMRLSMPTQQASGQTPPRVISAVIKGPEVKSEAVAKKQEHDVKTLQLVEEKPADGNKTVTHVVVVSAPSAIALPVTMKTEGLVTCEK
sequence,measurement,setting,value
TATAGC,binding signal,HSF1,1.17
same,binding signal,ELF2,1.17
CATCAT,binding signal,HSF1,0.952
same,binding signal,ELF2,1.03
CTGTGT,binding signal,HSF1,0.714
same,binding signal,ELF2,0.787
TGAAGG,binding signal,HSF1,0.928
same,binding signal,ELF2,0.883
AAATCA,binding signal,HSF1,1.17
same,binding signal,ELF2,1.23
GTTTTT,binding signal,HSF1,1.21
same,binding signal,ELF2,1.36
TTGAAG,binding signal,HSF1,0.987
same,binding signal,ELF2,0.892
CATTGT,binding signal,HSF1,0.933
same,binding signal,ELF2,1.03
ACCTTG,binding signal,HSF1,0.983
same,binding signal,ELF2,1.18
TAGCGA,binding signal,HSF1,1.22
same,binding signal,ELF2,0.998
CTGATG,binding signal,HSF1,1.33
same,binding signal,ELF2,1.54
GCTAAA,binding signal,HSF1,1.17
same,binding signal,ELF2,1.06
TTACAT,binding signal,HSF1,1.45
same,binding signal,ELF2,1.35
AGCATG,binding signal,HSF1,0.95
same,binding signal,ELF2,0.925
CACTGT,binding signal,HSF1,0.883
same,binding signal,ELF2,1.05
CGATGC,binding signal,HSF1,0.945
same,binding signal,ELF2,1.06
ACCCAC,binding signal,HSF1,0.973
same,binding signal,ELF2,1.1
TTATCT,binding signal,HSF1,2.24
same,binding signal,ELF2,1.26
GGTTGT,binding signal,HSF1,0.715
same,binding signal,ELF2,0.891
GTGGTC,binding signal,HSF1,0.559
same,binding signal,ELF2,0.812
TCCCGG,binding signal,HSF1,1.37
same,binding signal,ELF2,2.76
AGCGAC,binding signal,HSF1,0.931
same,binding signal,ELF2,1.14
CCATAG,binding signal,HSF1,0.949
same,binding signal,ELF2,0.874
ACACGC,binding signal,HSF1,0.912
same,binding signal,ELF2,1.06
CGGTTT,binding signal,HSF1,0.935
same,binding signal,ELF2,1.4
CTGGCG,binding signal,HSF1,0.768
same,binding signal,ELF2,0.851
CATTCA,binding signal,HSF1,0.967
same,binding signal,ELF2,1.01
ACTTGT,binding signal,HSF1,1.12
same,binding signal,ELF2,1.2
ATGCCT,binding signal,HSF1,1.13
same,binding signal,ELF2,1.26
TTCGCA,binding signal,HSF1,1.31
same,binding signal,ELF2,1.23
ACAATG,binding signal,HSF1,0.877
same,binding signal,ELF2,1.06
AGTCCT,binding signal,HSF1,0.903
same,binding signal,ELF2,1.06
AACTTT,binding signal,HSF1,1.68
same,binding signal,ELF2,1.23
TGCCCA,binding signal,HSF1,0.979
same,binding signal,ELF2,1.11
ACTCGG,binding signal,HSF1,0.935
same,binding signal,ELF2,1.01
TGCATA,binding signal,HSF1,0.979
same,binding signal,ELF2,1.09
ATTGAG,binding signal,HSF1,0.938
same,binding signal,ELF2,0.952
TATTTT,binding signal,HSF1,1.5
same,binding signal,ELF2,1.33
GGGGCT,binding signal,HSF1,0.949
same,binding signal,ELF2,0.981
AACAGA,binding signal,HSF1,0.993
same,binding signal,ELF2,0.963
AGTACC,binding signal,HSF1,0.812
same,binding signal,ELF2,1.01
CCACAG,binding signal,HSF1,0.828
same,binding signal,ELF2,0.891
CTCCAA,binding signal,HSF1,1.31
same,binding signal,ELF2,1.23
GGGTAT,binding signal,HSF1,0.865
same,binding signal,ELF2,0.969
GCAGCT,binding signal,HSF1,0.974
same,binding signal,ELF2,1.01
GATAAT,binding signal,HSF1,1.98
same,binding signal,ELF2,1.05
GCACTC,binding signal,HSF1,1.06
same,binding signal,ELF2,1.26
GCACAC,binding signal,HSF1,0.742
same,binding signal,ELF2,0.99
TCTAGG,binding signal,HSF1,1.7
same,binding signal,ELF2,1.05
GTATAC,binding signal,HSF1,0.951
same,binding signal,ELF2,1.26
CGCAAT,binding signal,HSF1,0.808
same,binding signal,ELF2,0.952
CTACTA,binding signal,HSF1,1.43
same,binding signal,ELF2,1.25
TTTGTG,binding signal,HSF1,1.12
same,binding signal,ELF2,1.1
GCCCCG,binding signal,HSF1,0.879
same,binding signal,ELF2,1.03
GCAATA,binding signal,HSF1,0.907
same,binding signal,ELF2,1.04
TACGAG,binding signal,HSF1,1.26
same,binding signal,ELF2,0.898
CCATGG,binding signal,HSF1,0.941
same,binding signal,ELF2,0.873
TCAGAC,binding signal,HSF1,0.809
same,binding signal,ELF2,0.878
CAAACC,binding signal,HSF1,0.886
same,binding signal,ELF2,1.13
CATGAT,binding signal,HSF1,1.1
same,binding signal,ELF2,1.04
TCGCGG,binding signal,HSF1,0.985
same,binding signal,ELF2,1.02
TTCAGA,binding signal,HSF1,1.09
same,binding signal,ELF2,0.927
CATCGT,binding signal,HSF1,0.746
same,binding signal,ELF2,0.861
CTATCA,binding signal,HSF1,0.993
same,binding signal,ELF2,1
GACACT,binding signal,HSF1,0.827
same,binding signal,ELF2,0.989
ACGGTT,binding signal,HSF1,0.877
same,binding signal,ELF2,0.987
TTTTCC,binding signal,HSF1,1.73
same,binding signal,ELF2,2.08
TAACGT,binding signal,HSF1,0.967
same,binding signal,ELF2,0.96
TGTGGC,binding signal,HSF1,0.848
same,binding signal,ELF2,0.992
GATAGC,binding signal,HSF1,0.889
same,binding signal,ELF2,1.05
AACGGT,binding signal,HSF1,0.812
same,binding signal,ELF2,0.904
GAAAGG,binding signal,HSF1,0.957
same,binding signal,ELF2,0.923
TTGTAG,binding signal,HSF1,1.23
same,binding signal,ELF2,1.06
TTGGTC,binding signal,HSF1,0.946
same,binding signal,ELF2,0.979
GAATGT,binding signal,HSF1,1.88
same,binding signal,ELF2,1.07
TTCCTA,binding signal,HSF1,1.59
same,binding signal,ELF2,2.04
TCAAAC,binding signal,HSF1,1.03
same,binding signal,ELF2,1.13
AGGACC,binding signal,HSF1,0.925
same,binding signal,ELF2,1.03
TAATGG,binding signal,HSF1,1.46
same,binding signal,ELF2,1.25
CACCTC,binding signal,HSF1,0.911
same,binding signal,ELF2,1.07
TGGCCC,binding signal,HSF1,0.879
same,binding signal,ELF2,0.996
CCCATC,binding signal,HSF1,0.895
same,binding signal,ELF2,1.13
AGATGA,binding signal,HSF1,1.24
same,binding signal,ELF2,1.03
TAGTTG,binding signal,HSF1,0.966
same,binding signal,ELF2,0.954
CACATG,binding signal,HSF1,0.865
same,binding signal,ELF2,1.06
GCAAAG,binding signal,HSF1,0.946
same,binding signal,ELF2,0.881
CTTTGA,binding signal,HSF1,1.21
same,binding signal,ELF2,1.13
TGCACA,binding signal,HSF1,0.883
same,binding signal,ELF2,1.07
TACGGT,binding signal,HSF1,0.896
same,binding signal,ELF2,0.97
AGATAA,binding signal,HSF1,1.68
same,binding signal,ELF2,1.02
CCGCAT,binding signal,HSF1,1.13
same,binding signal,ELF2,1.88
TACCAT,binding signal,HSF1,1.14
same,binding signal,ELF2,1.09
AAAACC,binding signal,HSF1,1.09
same,binding signal,ELF2,1.2
AAATAG,binding signal,HSF1,1.09
same,binding signal,ELF2,1.21
GTTGTA,binding signal,HSF1,0.853
same,binding signal,ELF2,0.965
GACCCC,binding signal,HSF1,0.67
same,binding signal,ELF2,0.921
TGTCAC,binding signal,HSF1,0.861
same,binding signal,ELF2,1.15
CGGCTG,binding signal,HSF1,0.846
same,binding signal,ELF2,0.965
TTACTA,binding signal,HSF1,1.79
same,binding signal,ELF2,1.26
CCTCAG,binding signal,HSF1,1.07
same,binding signal,ELF2,1.2
CGTCAA,binding signal,HSF1,0.933
same,binding signal,ELF2,1.09
TGGGTG,binding signal,HSF1,0.828
same,binding signal,ELF2,0.922
ACGCAC,binding signal,HSF1,0.855
same,binding signal,ELF2,1.02
CAAGTA,binding signal,HSF1,1.02
same,binding signal,ELF2,1.09
CGAACG,binding signal,HSF1,1.2
same,binding signal,ELF2,0.976
CCGGCC,binding signal,HSF1,0.767
same,binding signal,ELF2,1.16
CACGCA,binding signal,HSF1,0.88
same,binding signal,ELF2,0.964
GTCCCC,binding signal,HSF1,0.889
same,binding signal,ELF2,1.09
GTGTTT,binding signal,HSF1,0.886
same,binding signal,ELF2,1.18
CTAAAT,binding signal,HSF1,1.59
same,binding signal,ELF2,1.31
GATTCA,binding signal,HSF1,1.13
same,binding signal,ELF2,1.12
TAGAAT,binding signal,HSF1,3.07
same,binding signal,ELF2,1.09
CTCCAC,binding signal,HSF1,1.26
same,binding signal,ELF2,1.31
AGCAGA,binding signal,HSF1,0.994
same,binding signal,ELF2,0.904
GTGATG,binding signal,HSF1,0.723
same,binding signal,ELF2,0.891
TTACGT,binding signal,HSF1,1.21
same,binding signal,ELF2,1.08
GGCCTG,binding signal,HSF1,0.765
same,binding signal,ELF2,0.867
CGGATC,binding signal,HSF1,0.891
same,binding signal,ELF2,1.01
CCATCA,binding signal,HSF1,0.998
same,binding signal,ELF2,1.09
GCGTCC,binding signal,HSF1,0.869
same,binding signal,ELF2,1.26

# Looked up one by one from the list above:
sequence,measurement,setting,value
TGCATA,binding signal,HSF1,0.979
TAATGG,binding signal,HSF1,1.46
CGATGC,binding signal,HSF1,0.945
TCAAAC,binding signal,ELF2,1.13
CTGGCG,binding signal,HSF1,0.768

# An excerpt of these results, bar-delimited:
sequence | measurement | setting | value
GGTTGT | binding signal | ELF2 | 0.891
GTGGTC | binding signal | HSF1 | 0.559

# Some of the entries so far, bar-delimited.
sequence | measurement | setting | value
GTGATG | binding signal | ELF2 | 0.891
TTACGT | binding signal | HSF1 | 1.21
